Only a part is listed here, and it is no random draw.
Compound: COC(=O)C#Cc1ccccc1 [methyl 3-phenylpropiolate]
Assay: log2 ratio of iodoacetamide-alkyne labeling of the cysteine site, DMSO over compound (competition); higher = stronger covalent engagement of the cysteine by the compound, active = 1 or more
Conditions: 500 µM; treatment time 1 h; system: HEK293T cell lysate
Method in brief: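 HEK293T lysate (2 mg/mL) was incubated with electrophile (500 µM) or vehicle for 1 h at ambient temperature and then with iodoacetamide alkyne for 1 h. Labelled proteins were clicked to sCIP-TMT reagents, pooled, digested, enriched on streptavidin and measured by Orbitrap Eclipse LC-MS/MS with FAIMS, with FragPipe quantification. The per-cysteine log2 competition ratio is mean control-channel reporter intensity over mean compound-channel reporter intensity. Across three replicates with duplicate channels, cysteines quantified in only one replicate were excluded.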

By UniProt entry, the sequences of proteins in these tests, tags left out. Where a name states a change or a piece, a line headed by the entry shows the natural chain unless it says otherwise.
UniProt Q96T51: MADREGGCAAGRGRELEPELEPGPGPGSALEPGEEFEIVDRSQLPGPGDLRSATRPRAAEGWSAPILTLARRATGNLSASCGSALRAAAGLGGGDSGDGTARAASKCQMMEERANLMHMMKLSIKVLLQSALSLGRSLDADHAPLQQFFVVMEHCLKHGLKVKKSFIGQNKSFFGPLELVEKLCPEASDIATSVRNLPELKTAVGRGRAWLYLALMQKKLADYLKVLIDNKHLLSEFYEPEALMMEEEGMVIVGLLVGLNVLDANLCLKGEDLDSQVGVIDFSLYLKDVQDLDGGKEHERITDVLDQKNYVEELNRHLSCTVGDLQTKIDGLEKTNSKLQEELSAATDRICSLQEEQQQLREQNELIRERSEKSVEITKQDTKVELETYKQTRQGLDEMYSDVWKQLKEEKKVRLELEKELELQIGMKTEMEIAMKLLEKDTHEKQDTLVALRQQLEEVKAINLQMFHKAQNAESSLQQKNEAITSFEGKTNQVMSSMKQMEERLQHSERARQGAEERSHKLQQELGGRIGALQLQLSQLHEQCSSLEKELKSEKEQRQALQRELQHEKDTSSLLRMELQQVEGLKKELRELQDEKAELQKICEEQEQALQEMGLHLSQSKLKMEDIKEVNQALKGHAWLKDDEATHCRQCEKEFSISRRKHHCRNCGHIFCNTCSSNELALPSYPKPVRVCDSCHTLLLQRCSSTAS
UniProt Q96JM3: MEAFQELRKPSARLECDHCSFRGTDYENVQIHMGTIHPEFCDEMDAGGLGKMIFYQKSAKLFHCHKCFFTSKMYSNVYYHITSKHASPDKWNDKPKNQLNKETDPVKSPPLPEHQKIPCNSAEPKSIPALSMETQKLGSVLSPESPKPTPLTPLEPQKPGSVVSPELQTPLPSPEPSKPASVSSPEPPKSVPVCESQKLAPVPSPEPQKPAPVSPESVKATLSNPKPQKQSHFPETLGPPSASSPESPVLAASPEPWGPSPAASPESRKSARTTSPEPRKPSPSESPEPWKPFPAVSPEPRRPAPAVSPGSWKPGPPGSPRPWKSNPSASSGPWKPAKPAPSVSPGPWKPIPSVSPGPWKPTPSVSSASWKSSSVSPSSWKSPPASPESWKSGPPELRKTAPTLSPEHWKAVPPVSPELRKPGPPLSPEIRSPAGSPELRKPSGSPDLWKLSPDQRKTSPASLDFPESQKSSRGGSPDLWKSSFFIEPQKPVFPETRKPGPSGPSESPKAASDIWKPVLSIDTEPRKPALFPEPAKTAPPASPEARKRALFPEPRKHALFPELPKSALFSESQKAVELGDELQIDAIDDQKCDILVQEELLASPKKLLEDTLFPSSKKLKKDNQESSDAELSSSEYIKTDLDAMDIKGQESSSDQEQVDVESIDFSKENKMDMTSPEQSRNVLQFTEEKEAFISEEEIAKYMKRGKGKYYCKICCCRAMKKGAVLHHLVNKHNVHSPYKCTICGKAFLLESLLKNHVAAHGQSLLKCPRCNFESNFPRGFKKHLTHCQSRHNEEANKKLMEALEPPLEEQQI
UniProt Q9BQG0: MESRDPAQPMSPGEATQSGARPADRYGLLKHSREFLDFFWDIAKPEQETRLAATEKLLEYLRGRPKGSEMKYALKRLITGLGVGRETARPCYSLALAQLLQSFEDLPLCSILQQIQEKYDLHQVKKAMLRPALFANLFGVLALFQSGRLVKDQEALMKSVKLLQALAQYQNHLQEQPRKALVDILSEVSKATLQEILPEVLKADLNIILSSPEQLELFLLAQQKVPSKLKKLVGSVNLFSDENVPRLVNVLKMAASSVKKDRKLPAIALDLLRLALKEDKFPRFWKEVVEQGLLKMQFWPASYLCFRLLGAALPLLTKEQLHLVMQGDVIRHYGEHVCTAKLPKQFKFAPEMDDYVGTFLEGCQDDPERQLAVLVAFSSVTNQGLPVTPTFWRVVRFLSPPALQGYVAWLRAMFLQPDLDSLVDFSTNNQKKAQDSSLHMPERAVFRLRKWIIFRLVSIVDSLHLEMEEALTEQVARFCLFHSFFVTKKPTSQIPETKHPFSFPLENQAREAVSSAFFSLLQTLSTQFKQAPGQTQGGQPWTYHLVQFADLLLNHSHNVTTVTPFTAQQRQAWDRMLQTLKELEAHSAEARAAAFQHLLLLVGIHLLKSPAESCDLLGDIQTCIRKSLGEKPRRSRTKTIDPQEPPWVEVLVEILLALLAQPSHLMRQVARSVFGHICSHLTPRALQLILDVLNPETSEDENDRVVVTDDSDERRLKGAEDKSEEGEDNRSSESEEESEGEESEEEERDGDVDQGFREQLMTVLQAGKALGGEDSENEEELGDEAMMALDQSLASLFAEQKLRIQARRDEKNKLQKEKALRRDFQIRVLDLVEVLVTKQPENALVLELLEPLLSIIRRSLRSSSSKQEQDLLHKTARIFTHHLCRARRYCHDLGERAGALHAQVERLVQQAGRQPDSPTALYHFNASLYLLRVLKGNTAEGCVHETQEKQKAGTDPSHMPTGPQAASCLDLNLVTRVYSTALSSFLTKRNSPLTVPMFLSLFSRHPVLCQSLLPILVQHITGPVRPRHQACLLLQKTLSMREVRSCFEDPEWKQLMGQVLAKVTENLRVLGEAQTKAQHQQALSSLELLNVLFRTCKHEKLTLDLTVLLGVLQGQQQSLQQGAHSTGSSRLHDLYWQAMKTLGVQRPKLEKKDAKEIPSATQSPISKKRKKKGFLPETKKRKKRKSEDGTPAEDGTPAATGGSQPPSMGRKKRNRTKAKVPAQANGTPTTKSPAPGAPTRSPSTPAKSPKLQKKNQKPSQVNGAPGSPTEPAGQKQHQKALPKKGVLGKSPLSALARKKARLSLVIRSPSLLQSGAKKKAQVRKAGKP
UniProt Q96RU2: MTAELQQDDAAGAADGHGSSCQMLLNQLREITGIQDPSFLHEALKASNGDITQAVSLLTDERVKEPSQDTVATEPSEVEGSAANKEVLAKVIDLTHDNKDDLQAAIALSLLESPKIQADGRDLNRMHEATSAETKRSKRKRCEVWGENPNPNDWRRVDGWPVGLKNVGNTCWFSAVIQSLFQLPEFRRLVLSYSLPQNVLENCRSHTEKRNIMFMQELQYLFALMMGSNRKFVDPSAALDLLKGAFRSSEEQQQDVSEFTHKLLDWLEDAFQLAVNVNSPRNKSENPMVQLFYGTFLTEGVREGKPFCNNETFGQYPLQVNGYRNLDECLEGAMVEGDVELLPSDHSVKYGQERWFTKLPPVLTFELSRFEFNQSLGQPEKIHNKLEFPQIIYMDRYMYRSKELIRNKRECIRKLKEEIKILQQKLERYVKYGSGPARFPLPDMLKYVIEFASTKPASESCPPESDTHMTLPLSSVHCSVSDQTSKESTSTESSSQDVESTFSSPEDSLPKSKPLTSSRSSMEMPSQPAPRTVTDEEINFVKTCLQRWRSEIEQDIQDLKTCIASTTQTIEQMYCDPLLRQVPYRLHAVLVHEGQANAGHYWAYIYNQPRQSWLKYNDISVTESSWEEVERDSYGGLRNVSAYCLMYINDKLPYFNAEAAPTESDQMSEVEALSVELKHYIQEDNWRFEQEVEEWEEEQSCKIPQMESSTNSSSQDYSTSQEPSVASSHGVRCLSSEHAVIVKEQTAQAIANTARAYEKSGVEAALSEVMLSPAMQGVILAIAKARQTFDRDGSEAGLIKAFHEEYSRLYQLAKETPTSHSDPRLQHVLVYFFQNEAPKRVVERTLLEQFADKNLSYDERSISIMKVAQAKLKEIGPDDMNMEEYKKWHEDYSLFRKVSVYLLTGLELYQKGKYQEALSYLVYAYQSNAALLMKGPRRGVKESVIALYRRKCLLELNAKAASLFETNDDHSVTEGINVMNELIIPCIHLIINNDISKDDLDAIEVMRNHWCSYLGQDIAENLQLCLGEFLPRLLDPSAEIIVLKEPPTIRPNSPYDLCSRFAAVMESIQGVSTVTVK
UniProt Q99439: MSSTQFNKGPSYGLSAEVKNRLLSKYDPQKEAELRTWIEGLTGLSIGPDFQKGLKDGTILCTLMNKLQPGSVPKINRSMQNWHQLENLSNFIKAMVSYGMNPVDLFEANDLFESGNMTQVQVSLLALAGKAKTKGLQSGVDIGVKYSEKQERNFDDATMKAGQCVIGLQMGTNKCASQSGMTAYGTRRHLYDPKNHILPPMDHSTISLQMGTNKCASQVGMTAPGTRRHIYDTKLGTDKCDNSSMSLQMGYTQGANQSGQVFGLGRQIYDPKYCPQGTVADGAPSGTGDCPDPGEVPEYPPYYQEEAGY
UniProt Q96KG9: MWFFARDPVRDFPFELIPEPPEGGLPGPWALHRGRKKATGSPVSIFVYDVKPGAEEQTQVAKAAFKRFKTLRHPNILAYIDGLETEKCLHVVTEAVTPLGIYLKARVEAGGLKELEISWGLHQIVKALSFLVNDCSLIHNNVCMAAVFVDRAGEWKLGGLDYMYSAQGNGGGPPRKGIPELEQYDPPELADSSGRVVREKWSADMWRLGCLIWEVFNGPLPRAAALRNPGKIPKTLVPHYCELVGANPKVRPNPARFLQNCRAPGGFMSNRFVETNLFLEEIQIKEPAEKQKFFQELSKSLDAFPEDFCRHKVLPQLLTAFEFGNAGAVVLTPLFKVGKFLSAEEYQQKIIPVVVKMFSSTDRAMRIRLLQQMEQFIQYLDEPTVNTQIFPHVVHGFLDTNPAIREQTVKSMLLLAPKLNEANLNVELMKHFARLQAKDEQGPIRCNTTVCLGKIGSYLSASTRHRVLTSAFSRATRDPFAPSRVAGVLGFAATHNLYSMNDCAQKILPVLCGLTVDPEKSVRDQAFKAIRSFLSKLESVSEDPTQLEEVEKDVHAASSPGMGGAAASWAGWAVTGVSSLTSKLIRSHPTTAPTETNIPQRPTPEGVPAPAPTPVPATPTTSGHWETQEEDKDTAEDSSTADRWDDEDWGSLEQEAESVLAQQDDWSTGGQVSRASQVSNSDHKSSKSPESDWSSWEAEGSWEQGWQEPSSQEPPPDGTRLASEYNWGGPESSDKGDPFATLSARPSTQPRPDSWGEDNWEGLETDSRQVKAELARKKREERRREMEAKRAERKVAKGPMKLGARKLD
UniProt Q96JY6: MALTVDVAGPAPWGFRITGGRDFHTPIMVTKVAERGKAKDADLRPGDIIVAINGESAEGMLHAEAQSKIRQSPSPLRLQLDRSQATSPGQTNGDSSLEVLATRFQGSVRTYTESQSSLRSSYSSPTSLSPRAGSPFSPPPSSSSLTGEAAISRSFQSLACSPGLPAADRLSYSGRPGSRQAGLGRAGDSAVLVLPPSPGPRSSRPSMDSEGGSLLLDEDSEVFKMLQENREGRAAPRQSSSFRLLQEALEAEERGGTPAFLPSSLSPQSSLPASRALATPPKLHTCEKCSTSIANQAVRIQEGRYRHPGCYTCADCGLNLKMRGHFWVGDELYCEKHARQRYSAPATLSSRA
UniProt Q99961: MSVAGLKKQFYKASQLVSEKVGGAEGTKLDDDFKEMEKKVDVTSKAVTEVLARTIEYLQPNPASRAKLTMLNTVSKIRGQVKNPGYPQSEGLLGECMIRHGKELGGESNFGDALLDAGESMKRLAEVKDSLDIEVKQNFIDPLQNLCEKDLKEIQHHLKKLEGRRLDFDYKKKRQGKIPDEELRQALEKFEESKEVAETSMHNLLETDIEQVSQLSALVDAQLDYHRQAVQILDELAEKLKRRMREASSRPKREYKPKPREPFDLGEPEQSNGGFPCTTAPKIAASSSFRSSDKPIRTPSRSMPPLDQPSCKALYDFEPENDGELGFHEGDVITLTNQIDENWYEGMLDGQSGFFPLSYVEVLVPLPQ
UniProt Q96SU4: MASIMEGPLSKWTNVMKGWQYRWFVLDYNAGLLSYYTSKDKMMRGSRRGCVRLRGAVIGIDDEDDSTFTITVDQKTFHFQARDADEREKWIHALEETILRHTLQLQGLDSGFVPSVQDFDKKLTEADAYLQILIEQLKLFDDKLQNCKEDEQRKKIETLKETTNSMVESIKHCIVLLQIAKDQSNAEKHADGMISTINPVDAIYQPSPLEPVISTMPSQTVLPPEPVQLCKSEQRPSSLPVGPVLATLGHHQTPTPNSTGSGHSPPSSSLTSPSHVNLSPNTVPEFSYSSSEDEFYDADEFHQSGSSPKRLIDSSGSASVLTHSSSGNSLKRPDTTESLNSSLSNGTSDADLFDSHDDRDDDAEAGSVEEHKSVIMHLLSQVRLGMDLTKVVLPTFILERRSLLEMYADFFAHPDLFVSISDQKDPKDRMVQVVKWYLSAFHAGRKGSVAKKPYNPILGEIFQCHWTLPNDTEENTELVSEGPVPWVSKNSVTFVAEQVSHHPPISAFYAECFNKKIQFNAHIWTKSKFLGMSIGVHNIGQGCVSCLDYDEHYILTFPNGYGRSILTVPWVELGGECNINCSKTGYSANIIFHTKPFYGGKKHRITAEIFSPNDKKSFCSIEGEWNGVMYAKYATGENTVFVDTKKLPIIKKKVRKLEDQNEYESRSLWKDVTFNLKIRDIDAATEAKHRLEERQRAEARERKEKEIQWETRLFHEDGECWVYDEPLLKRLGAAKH

log2 ratio of iodoacetamide-alkyne labeling, inactive:
RUFY1 C544 (UniProt Q96T51) 0.0736
PNKP C516 (UniProt Q96T60) 0.166
HNRNPAB C98 (UniProt Q99729) -0.0694
UniProt Q96JM3_C787 0.141
PBK C70 (UniProt Q96KB5) 0.539
MYBBP1A C614 (UniProt Q9BQG0) -0.148
PLEKHF1 C21 (UniProt Q96S99) 0.153
USP28 C1058 (UniProt Q96RU2) 0.502
SPAG5 C1035 (UniProt Q96R06) 0.251
UniProt Q96MG7_C283 0.0647
MYBBP1A C1009 (UniProt Q9BQG0) -0.00668
CNN2 C164 (UniProt Q99439) 0.574
USP28 C203 (UniProt Q96RU2) 0.234
SNX27 C30 (UniProt Q96L92) 0.774
SCYL1 C309 (UniProt Q96KG9) 0.548
CCDC138 C28 (UniProt Q96M89) 0.572
CNN2 C215 (UniProt Q99439) 0.929
PDLIM2 C289 (UniProt Q96JY6) 0.116
ZNF830 C314 (UniProt Q96NB3) 0.699
SH3GL1 C96 (UniProt Q99961) 0.45
CDC5L C96 (UniProt Q99459) -0.0212
SCYL1 C512 (UniProt Q96KG9) 0.205
SPAG5 C822 (UniProt Q96R06) -0.122
ZNF48 C288 (UniProt Q96MX3) 0.989
NABP2 C99 (UniProt Q9BQ15) 0.315
RSF1 C944 (UniProt Q96T23) 0.231
RUFY1 C603 (UniProt Q96T51) 0.209
MTR C1153 (UniProt Q99707) -0.209
WRNIP1 C39 (UniProt Q96S55) -0.0706
RPRD1A C100 (UniProt Q96P16) 0.124
UniProt Q96JA1_C1066 0.118
OSBPL9 C619 (UniProt Q96SU4) 0.124
DDX50 C603 (UniProt Q9BQ39) 0.552
DOK1 C308 (UniProt Q99704) 0.495
CCT7 C364 (UniProt Q99832) 0.324
MYBBP1A C1096 (UniProt Q9BQG0) 0.0752
NUDCD1 C32 (UniProt Q96RS6) 0.565

6 consecutive records from above, for reference:
log2 ratio of iodoacetamide-alkyne labeling, inactive:
MYBBP1A C1009 (UniProt Q9BQG0) -0.00668
CNN2 C164 (UniProt Q99439) 0.574
USP28 C203 (UniProt Q96RU2) 0.234
SNX27 C30 (UniProt Q96L92) 0.774
SCYL1 C309 (UniProt Q96KG9) 0.548
CCDC138 C28 (UniProt Q96M89) 0.572
